This test deals with BT-474/MUC1shRNA cells. In words: cells. Particulars: Homo sapiens. The source says:
The multiple effect-level isobologram analyses are shown for the ED50 (X), ED75 (+) and ED90 (⊙) values.

Each structure is given as a SMILES string.

`CC/C(=C(\c1ccccc1)c1ccc(OCCN(C)C)cc1)c1ccccc1` [tamoxifen] registered a 50% inhibitory concentration (IC50) of 16.6 µM.

In general, IC50 refers to the concentration at which inhibition is half-maximal. Higher therefore signals weaker potency in that assay.

Source of the values: patent publication US9572855B2, “Combination anti-estrogen receptor cancer therapy using MUC1 peptides and chemotherapeutics” (DANA-FARBER CANCER INSTITUTE, INC., priority 2013, dated 2017).
